This passage reports red-shift from furimazine results from US10202584B2, “Red-shifted luciferase-luciferin pairs for enhanced bioluminescence” (The Regents of the University of California, priority 2016, dated 2019).

In this data set the test system is purified luciferases. In words: Bioluminescence emission spectra of purified luciferases with luciferin substrates. The data set is classed as biochemical. As to conditions: assayed with NanoLuc.

On to `O=c1c(Cc2ccccc2)nc2c(-c3ccccc3)[nH]c(-c3ccccc3)cn1-2` [DTZ, diphenylterazine], for which the red-shift from furimazine is recorded as 44 nm.
As for `O=c1c(Cc2ccccc2)nc2c([Se]c3ccccc3)[nH]c(-c3ccccc3)cn1-2` [STZ, 2-benzyl-6-phenyl-8-(phenylselanyl)imidazo[1,2-a]pyrazin-3(7H)-one], the red-shift from furimazine stood at 71 nm.
